Measured values as given in article PMC3530481.

Columns and labels:
[1] = molecular target: T1, recombinant human WARP (von Willebrand factor A-domain related protein), dimer (human) (UniProt Q6PCB0); assay: ELISA; reciprocal solid-phase binding: recombinant WARP fractions (dimer, mix, multimer) coated at 5 ug/ml in TBS, collagen VI tetramers 1-30 ug/ml in TBS, detected with rabbit anti-collagen VI (Ab 7821); both purified
T1 sequence: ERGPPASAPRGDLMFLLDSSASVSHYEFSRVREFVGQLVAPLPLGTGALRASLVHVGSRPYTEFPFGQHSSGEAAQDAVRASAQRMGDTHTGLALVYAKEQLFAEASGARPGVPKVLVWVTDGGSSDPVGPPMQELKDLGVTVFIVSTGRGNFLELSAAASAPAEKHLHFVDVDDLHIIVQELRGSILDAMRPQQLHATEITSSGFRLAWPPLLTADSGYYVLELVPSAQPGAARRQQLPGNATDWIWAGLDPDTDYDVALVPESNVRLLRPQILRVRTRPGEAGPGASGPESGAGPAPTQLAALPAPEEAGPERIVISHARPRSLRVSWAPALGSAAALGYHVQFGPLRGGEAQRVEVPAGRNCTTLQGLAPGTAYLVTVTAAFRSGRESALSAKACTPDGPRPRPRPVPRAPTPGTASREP

[2] = molecular target: T2, recombinant human WARP, multimer (human) (UniProt Q6PCB0); assay: as above
T2 sequence: T1 sequence

binding [1]: binds
binding [2]: no binding (tested: 30 µg/ml)
Substance: collagen VI tetramers from bovine cornea (complex)

No constants are given. Whether binding was seen depends on the method and setting. For some assays here: Binding can be weak; no strength is given.
